# According to paper doi:10.1101/2020.12.28.423414:
# Protein sequences, listed by entry. Tags and fused reporters are not part of them.
# UniProt Q9FIJ0: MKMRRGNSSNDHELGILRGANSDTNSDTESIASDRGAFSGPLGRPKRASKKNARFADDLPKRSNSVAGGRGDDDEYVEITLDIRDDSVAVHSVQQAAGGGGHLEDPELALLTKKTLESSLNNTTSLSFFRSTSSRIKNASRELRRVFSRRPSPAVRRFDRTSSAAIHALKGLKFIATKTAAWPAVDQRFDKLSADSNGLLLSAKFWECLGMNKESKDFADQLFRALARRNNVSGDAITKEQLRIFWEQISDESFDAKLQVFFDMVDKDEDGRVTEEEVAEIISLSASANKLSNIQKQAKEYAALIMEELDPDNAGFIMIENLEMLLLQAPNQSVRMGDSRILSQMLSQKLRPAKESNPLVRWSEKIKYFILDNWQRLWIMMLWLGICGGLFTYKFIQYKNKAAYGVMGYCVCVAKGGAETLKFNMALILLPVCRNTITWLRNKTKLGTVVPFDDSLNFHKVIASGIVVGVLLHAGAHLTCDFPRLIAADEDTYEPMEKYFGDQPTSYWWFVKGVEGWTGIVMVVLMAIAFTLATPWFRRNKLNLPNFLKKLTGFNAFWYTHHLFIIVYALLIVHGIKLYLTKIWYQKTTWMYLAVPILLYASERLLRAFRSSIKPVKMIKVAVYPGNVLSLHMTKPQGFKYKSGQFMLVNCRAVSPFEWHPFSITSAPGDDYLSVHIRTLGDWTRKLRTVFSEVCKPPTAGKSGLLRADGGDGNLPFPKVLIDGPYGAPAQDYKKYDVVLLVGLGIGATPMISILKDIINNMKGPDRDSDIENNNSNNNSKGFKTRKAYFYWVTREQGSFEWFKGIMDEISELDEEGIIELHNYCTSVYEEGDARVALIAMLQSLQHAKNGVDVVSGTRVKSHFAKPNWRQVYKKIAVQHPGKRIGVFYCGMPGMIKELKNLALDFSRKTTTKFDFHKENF
# These are yes or no findings as the source states them, for the method shown. Binding seen in cells or lysates may run through a third protein. A yes stands for co-enrichment or nearness to the bait. Other partners may have been found.
# How the values were obtained:
# [1] = molecular target: 3×FLAG-tagged RBOHD (RESPIRATORY BURST OXIDASE HOMOLOG D) (Arabidopsis thaliana) (UniProt Q9FIJ0); assay: affinity purification with mass spectrometry
# [2] = molecular target: 3×FLAG-tagged RBOHD (RESPIRATORY BURST OXIDASE HOMOLOG D) (Arabidopsis thaliana), Q9FIJ0; assay: affinity purification with mass spectrometry; details: remark: other sources report otherwise
binding [1],binding [2],Binder
binds,–,"cyclic nucleotide-gated ion channel CNGC4 (protein, UniProt Q94AS9 1-694) MATEQEFTRASRFSRDSSSVGYYSEEDNTEEEDEEEEEMEEIEEEEEEEEEEDPRIGLTCGGRRNGSSNNNKWMMLGRILDPRSKWVREWNKVFLLVCATGLFVDPLFLYTLSVSDTCMCLLVDGWLALTVTALRSMTDLLHLWNIWIQFKIARRWPYPGGDSDGDTNKGGGTRGSTRVAPPYVKKNGFFFDLFVILPLPQVVLWVVIPSLLKRGSVTLVVSVLLVTFLFQYLPKIYHSIRHLRRNATLSGYIFGTVWWGIALNMIAYFVAAHAAGACWYLLGVQRSAKCLKEQCENTIGCDLRMLSCKEPVYYGTTVMVLDRARLAWAQNHQARSVCLDINTNYTYGAYQWTIQLVSSESRLEKILFPIFWGLMTLSTFGNLESTTEWSEVVFNIIVLTSGLLLVTMLIGNIKVFLHATTSKKQAMHLKMRNIEWWMKKRHLPIGFRQRVRNYERQRWAAMRGVDECEMVQNLPEGLRRDIKYHLCLDLVRQVPLFQHMDDLVLENICDRVKSLIFTKGETIQKEGDAVQRMLFVVRGHLQSSQLLRDGVKSCCMLGPGNFSGDELLSWCLRRPFVERLPPSSSTLVTLETTEAFGLDAEDVKYVTQHFRYTFVNEKVKRSARYYSPGWRTWAAVAVQLAWRRYKHRLTLTSLSFIRPRRPLSRCASLGEDKLRLYAAILTSPKPNPDDFDDY"
binds,–,"plasma membrane calcium ATPase ACA8 (enzyme, UniProt Q9LF79 1-1074) MTSLLKSSPGRRRGGDVESGKSEHADSDSDTFYIPSKNASIERLQQWRKAALVLNASRRFRYTLDLKKEQETREMRQKIRSHAHALLAANRFMDMGRESGVEKTTGPATPAGDFGITPEQLVIMSKDHNSGALEQYGGTQGLANLLKTNPEKGISGDDDDLLKRKTIYGSNTYPRKKGKGFLRFLWDACHDLTLIILMVAAVASLALGIKTEGIKEGWYDGGSIAFAVILVIVVTAVSDYKQSLQFQNLNDEKRNIHLEVLRGGRRVEISIYDIVVGDVIPLNIGNQVPADGVLISGHSLALDESSMTGESKIVNKDANKDPFLMSGCKVADGNGSMLVTGVGVNTEWGLLMASISEDNGEETPLQVRLNGVATFIGSIGLAVAAAVLVILLTRYFTGHTKDNNGGPQFVKGKTKVGHVIDDVVKVLTVAVTIVVVAVPEGLPLAVTLTLAYSMRKMMADKALVRRLSACETMGSATTICSDKTGTLTLNQMTVVESYAGGKKTDTEQLPATITSLVVEGISQNTTGSIFVPEGGGDLEYSGSPTEKAILGWGVKLGMNFETARSQSSILHAFPFNSEKKRGGVAVKTADGEVHVHWKGASEIVLASCRSYIDEDGNVAPMTDDKASFFKNGINDMAGRTLRCVALAFRTYEAEKVPTGEELSKWVLPEDDLILLAIVGIKDPCRPGVKDSVVLCQNAGVKVRMVTGDNVQTARAIALECGILSSDADLSEPTLIEGKSFREMTDAERDKISDKISVMGRSSPNDKLLLVQSLRRQGHVVAVTGDGTNDAPALHEADIGLAMGIAGTEVAKESSDIIILDDNFASVVKVVRWGRSVYANIQKFIQFQLTVNVAALVINVVAAISSGDVPLTAVQLLWVNLIMDTLGALALATEPPTDHLMGRPPVGRKEPLITNIMWRNLLIQAIYQVSVLLTLNFRGISILGLEHEVHEHATRVKNTIIFNAFVLCQAFNEFNARKPDEKNIFKGVIKNRLFMGIIVITLVLQVIIVEFLGKFASTTKLNWKQWLICVGIGVISWPLALVGKFIPVPAAPISNKLKVLKFWGKKKNSSGEGSL"
–,binds,"CERK1, A8R7E6 24-617 (receptor) KCRTSCPLALASYYLENGTTLSVINQNLNSSIAPYDQINFDPILRYNSNIKDKDRIQMGSRVLVPFPCECQPGDFLGHNFSYSVRQEDTYERVAISNYANLTTMESLQARNPFPATNIPLSATLNVLVNCSCGDESVSKDFGLFVTYPLRPEDSLSSIARSSGVSADILQRYNPGVNFNSGNGIVYVPGRDPNGAFPPFKSSKQDGVGAGVIAGIVIGVIVALLLILFIVYYAYRKNKSKGDSFSSSIPLSTKADHASSTSLQSGGLGGAGVSPGIAAISVDKSVEFSLEELAKATDNFNLSFKIGQGGFGAVYYAELRGEKAAIKKMDMEASKQFLAELKVLTRVHHVNLVRLIGYCVEGSLFLVYEYVENGNLGQHLHGSGREPLPWTKRVQIALDSARGLEYIHEHTVPVYVHRDIKSANILIDQKFRAKVADFGLTKLTEVGGSATRGAMGTFGYMAPETVYGEVSAKVDVYAFGVVLYELISAKGAVVKMTEAVGEFRGLVGVFEESFKETDKEEALRKIIDPRLGDSYPFDSVYKMAELGKACTQENAQLRPSMRYIVVALSTLFSSTGNWDVGNFQNEDLVSLMSGR"
